No constants are given. Whether binding was seen depends on the method and setting. In cells and extracts the contact can be indirect. These calls come from enrichment with a bait or labelling near it, and not all partners need be listed. Sequences can lack the tags named with a protein.
Target: T1, myc-tagged human SFPQ, full length (human) (UniProt P23246)
T1 sequence: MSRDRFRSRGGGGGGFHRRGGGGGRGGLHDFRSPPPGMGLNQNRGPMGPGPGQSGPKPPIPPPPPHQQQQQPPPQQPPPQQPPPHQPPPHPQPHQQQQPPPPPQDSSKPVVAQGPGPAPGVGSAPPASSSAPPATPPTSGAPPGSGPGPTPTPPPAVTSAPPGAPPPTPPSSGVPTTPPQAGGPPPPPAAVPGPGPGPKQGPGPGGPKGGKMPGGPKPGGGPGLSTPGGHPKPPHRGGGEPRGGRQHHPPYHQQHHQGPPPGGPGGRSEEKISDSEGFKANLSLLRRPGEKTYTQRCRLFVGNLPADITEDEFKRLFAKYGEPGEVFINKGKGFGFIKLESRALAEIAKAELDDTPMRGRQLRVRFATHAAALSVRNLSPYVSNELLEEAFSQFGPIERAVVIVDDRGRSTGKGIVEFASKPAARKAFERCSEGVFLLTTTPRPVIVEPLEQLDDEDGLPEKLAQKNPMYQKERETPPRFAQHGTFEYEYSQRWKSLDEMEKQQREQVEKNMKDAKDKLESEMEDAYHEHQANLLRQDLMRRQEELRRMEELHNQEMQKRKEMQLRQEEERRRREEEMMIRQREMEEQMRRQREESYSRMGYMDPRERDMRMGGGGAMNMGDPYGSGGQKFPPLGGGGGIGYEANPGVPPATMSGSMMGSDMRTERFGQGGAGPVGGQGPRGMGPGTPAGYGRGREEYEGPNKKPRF
Assay: affinity purification with mass spectrometry; myc-SFPQ transiently overexpressed in H1299; anti-myc immunoprecipitation; SDS-PAGE, Coomassie-stained bands excised; MALDI-TOF; control myc-Bif-1

Protein sequences, listed by entry. Tags and fused reporters are not part of them.
UniProt Q9UER7: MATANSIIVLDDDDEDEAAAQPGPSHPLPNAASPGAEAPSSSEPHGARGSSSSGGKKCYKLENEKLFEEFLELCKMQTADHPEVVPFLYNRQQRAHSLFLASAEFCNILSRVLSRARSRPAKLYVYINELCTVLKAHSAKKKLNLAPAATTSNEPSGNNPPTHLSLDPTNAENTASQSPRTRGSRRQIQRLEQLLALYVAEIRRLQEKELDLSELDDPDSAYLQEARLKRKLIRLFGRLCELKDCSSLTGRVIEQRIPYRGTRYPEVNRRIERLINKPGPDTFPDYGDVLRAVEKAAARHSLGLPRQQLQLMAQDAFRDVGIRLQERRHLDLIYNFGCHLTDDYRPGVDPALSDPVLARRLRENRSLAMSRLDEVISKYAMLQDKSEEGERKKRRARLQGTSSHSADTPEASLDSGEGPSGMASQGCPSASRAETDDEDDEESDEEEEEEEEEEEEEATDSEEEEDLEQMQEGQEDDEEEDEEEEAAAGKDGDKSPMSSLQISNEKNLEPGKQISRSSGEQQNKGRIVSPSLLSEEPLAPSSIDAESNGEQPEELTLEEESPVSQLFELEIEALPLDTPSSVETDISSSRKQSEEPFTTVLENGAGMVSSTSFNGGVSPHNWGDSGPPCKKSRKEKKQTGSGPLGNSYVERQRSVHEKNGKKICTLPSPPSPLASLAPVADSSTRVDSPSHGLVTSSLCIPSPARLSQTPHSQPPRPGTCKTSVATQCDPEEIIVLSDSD

“endogenous Death Domain-Associated Protein (DAXX) (from UniProt Q9UER7 1-740)” was tested, and the binding was “binds”.

Reference: paper PMC13043726, “SFPQ directs histone H3.3 deposition to R-loops in DNA repeats to protect genome stability”
